Experimental data: PubChem BioAssay AID686937 (Drosophila RNAi Screening Center, 2013)

Assay: 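Knock-downs that reduce output of a secreted reporter enzyme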 (primary screen)
Cell system: Drosophila S2 cells expressing secreted horseradish peroxidase
Knock-down reagent: long dsRNA against Drosophila genes
Duration: about 5.5 days (5 days dsRNA, then 12 h reporter induction)
Conditions: reporter expression induced after 5 days of dsRNA, read 12 h later; inducer not stated
Measured: 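Chemiluminescent measurement of peroxidase in the medium 12 h after reporter induction, following 5 days of dsRNA, given as a z-score per plate; higher means more secretion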
Direction: z-score: higher = more reporter secreted into medium
The screen tested about 23,000 reagents; below is an unselected part of those that have a named target and a result. 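Reduced-secretion tags in replicate 1 do not always agree with the z-scores; no criterion for assigning the tags was given.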 A plus sign joins genes that one reagent is predicted to hit. No sequences are given here. Not stated in the record: the amount of reagent.

Target gene	DRSC id	z-score, replicate 1	z-score, replicate 2	phenotype, replicate 1
CHKov1 (CHK domain ov1)	DRSC01566	-0.1	0.28	
CHKov1 (CHK domain ov1)	DRSC01696	-0.33	-0.05	
CHKov1 (CHK domain ov1)	DRSC14258	0	0.02	
CHKov1 (CHK domain ov1)	DRSC20937	0.42	0.36	
UBL3 (Ubiquitin like 3)	DRSC20298	0.44	0.24	
Ncoa6 (Nuclear receptor coactivator 6)	DRSC02353	-2.39	-1.31	reduced secretion
Mur89F (Mucin related 89F)	DRSC15544	0.5	0.37	
SkpB (SKP1-related B)	DRSC07683	0.34	0.42	
CG6276	DRSC16007	0.17	0.25	
CG14598	DRSC12541	0.21	0.4	
Zif (Zinc-finger protein)	DRSC12514	-1.06	-1.23	
CG30278	DRSC22787	2.3	0.39	
dsb (debris buster)	DRSC08407	-2.72	-2.14	reduced secretion
dsb (debris buster)	DRSC08542	0.37	0.33	
RpL28 + snoRNA:Or-CD12	DRSC08293	-2.55	-0.94	reduced secretion
ppk10 (pickpocket 10)	DRSC01123	0.83	0.08	
CG5509	DRSC15822	0.49	0.84	
CG13920	DRSC08389	0.2	0.15	
CG7742	DRSC03066	0.27	0.33	
Caf1-180 (Chromatin assembly factor 1, p180 subunit)	DRSC17807	0.33	0.44	
ssp6 (short spindle 6)	DRSC08791	-0.2	0.42	
ssp6 (short spindle 6)	DRSC10677	-0.2	0.01	
CG17078	DRSC00484	0.11	0.14	
sinah (sina homologue)	DRSC09910	0.32	0.35	
sinah (sina homologue)	DRSC22181	-0.86	-0.06	
jet (jetlag)	DRSC03116	0.26	0.05	
CG10005	DRSC14172	-0.03	-0.02	
mirr (mirror)	DRSC11369	0.58	0.88	
CG6959	DRSC16151	0.11	0.86	
hll (heimdall)	DRSC01944	0.02	-0.07	
Gld (Glucose dehydrogenase)	DRSC12595	0.25	0.31	
Grip71	DRSC02042	1.64	0.45	
CG43737	DRSC19609	0.32	0.53	
CG43737	DRSC19610	0.46	0.64	
Pgant3 (Polypeptide N-Acetylgalactosaminyltransferase 3)	DRSC05942	0.26	-0.15	
Smyd4-1 (SET and MYND domain containing, class 4, member 1)	DRSC06785	0.5	0.37	
ADD1 (ADD domain-containing protein 1)	DRSC07135	0.18	0.27	
CG30345	DRSC05144	-0.07		
CG18262	DRSC18149	0.37	0.18	
CG12239	DRSC17832	-0.05	-0.02	
PGRP-LE (Peptidoglycan recognition protein LE)	DRSC20137	0.28	0.44	
ms(3)76Ba (male sterile (3) 76Ba)	DRSC10091	0.23	0.55	
Coop (Corepressor of Pangolin)	DRSC06604	-0.51	-0.34	
CG31697	DRSC22273	-0.01	0.09	
CG14130	DRSC10134	0.44	0.18	
HP4 (Heterochromatin protein 4)	DRSC10958	0.38	0.29	
CG31446	DRSC13111	0.04	0.14	
CG10654	DRSC09767	0.46	0.42	
CG12012	DRSC08220	0.09	0.2	
lncRNA:CR32368 (long non-coding RNA:CR32368)	DRSC08899	-0.48	-0.11	
CG8079	DRSC07070	0.7	0.64	
CG8079	DRSC07071	0.25	0.33	
spdi (split discs)	DRSC18487	0.21	0.06	
spdi (split discs)	DRSC18488	0.59	0.22	
Dera (Deoxyribose-phosphate aldolase)	DRSC07207	0.38	0.32	
Dera (Deoxyribose-phosphate aldolase)	DRSC21336	0.16	-0.34	

Just “z-score, replicate 1”, for 7 of the entries above:
CG30345 [DRSC05144]	-0.07
CG18262 [DRSC18149]	0.37
CG12239 [DRSC17832]	-0.05
PGRP-LE (Peptidoglycan recognition protein LE) [DRSC20137]	0.28
ms(3)76Ba (male sterile (3) 76Ba) [DRSC10091]	0.23
Coop (Corepressor of Pangolin) [DRSC06604]	-0.51
CG31697 [DRSC22273]	-0.01
